Values of other authors as cited in patent publication US6362219B1 (Council of Scientific and Industrial Research, priority 1999, dated 2002).
For some assays here: For at least one compound, name, drawing or mass did not settle the structure. Some entries share one result that the patent states for a list of compounds.

Experiments:
[1] = tested on: P. falciparum cultures (W-2 Indo-China and D-6 Sierre Lone strains); settings: in vitro; cited from earlier work
[2] = rats; cited from earlier work
[3] = tested on: malaria; settings: upto 700 mg; cited from earlier work
[4] = tested on: P. falcipurum; settings: im; cited from earlier work
[5] = tested on: P. falciparum isolates in Thailand; settings: cited from earlier work

C[C@H]1[C@@H](O)O[C@@H]2O[C@@]3(C)CC[C@H]4[C@H](C)CC[C@@H]1[C@@]24OO3 [DHA, Dihydroartemisinin]
direct antimalarial activity [1]: superior to that of artemether and arteether β

CO[C@H]1O[C@@H]2O[C@@]3(C)CC[C@H]4[C@H](C)CC[C@@H]([C@H]1C)[C@@]24OO3 [artemether]
DHA level after dosing as % of those after im dosing with DHA [2]: less than 2.6%
cure rate [3]: 90%
recovery from coma [4]: 47 h
mean ratio of inhibitory activities of artemether vs. DHA [5]: 1:2.9
